# Experimental data as given in doi:10.1101/2020.03.28.013953.
# Legend:
# [1] = target: T1, ParB2 (Deinococcus radiodurans R1 (ATCC13939)) (UniProt Q9RZE7); assay: EMSA; settings: 5 mM MgSO4
# T1 sequence (looked up, limits assumed): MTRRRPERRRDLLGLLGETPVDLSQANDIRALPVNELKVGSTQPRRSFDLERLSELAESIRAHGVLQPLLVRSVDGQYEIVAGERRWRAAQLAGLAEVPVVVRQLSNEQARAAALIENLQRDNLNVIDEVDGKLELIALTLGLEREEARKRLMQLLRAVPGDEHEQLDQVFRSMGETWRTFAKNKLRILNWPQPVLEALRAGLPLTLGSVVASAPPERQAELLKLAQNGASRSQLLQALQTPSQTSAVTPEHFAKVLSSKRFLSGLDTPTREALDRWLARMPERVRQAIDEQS
# [2] = target: T2, ParB3 (Deinococcus radiodurans R1 (ATCC13939)) (UniProt Q9RZV8); assay: EMSA; settings: 5 mM MgSO4
# T2 sequence (looked up, limits assumed): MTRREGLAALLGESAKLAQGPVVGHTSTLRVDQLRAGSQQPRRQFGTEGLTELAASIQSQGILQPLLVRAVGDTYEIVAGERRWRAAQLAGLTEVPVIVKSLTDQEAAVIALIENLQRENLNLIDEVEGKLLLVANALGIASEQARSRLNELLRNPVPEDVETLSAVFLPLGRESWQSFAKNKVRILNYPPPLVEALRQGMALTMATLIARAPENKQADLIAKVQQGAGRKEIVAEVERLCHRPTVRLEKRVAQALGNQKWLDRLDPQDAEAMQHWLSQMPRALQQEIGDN
Sequence,binding result [1],binding result [2]
CTCCACAAAGTGCCACAGGTAATTCCACAAAGTGCCACAGGC (double strand) [cisII 2 repeats],binds more weakly,
ACGCAAAGGTGTCGCTATTTTGACCCCAAATCCCGCAAAGGTGTCGCTAT (double strand) [cisMP 2 repeats],,binds more weakly

# The exact form of at least one protein or probe is not confirmed. Weaker means in comparison with the reference protein, sequence or condition of that experiment. Where a protein sequence is shown, tags need not be part of it.
